Measurements taken from publication doi:10.1101/2022.07.04.498669.
Results are given in words; binding and its absence hold for the method and conditions named. Some entries that bind do so weakly or less than the wild type.

By UniProt entry, the sequences of proteins in these tests, tags left out. Where a name states a change or a piece, a line headed by the entry shows the natural chain unless it says otherwise.
UniProt Q9KGU7, whole entry, looked up, stated change not applied: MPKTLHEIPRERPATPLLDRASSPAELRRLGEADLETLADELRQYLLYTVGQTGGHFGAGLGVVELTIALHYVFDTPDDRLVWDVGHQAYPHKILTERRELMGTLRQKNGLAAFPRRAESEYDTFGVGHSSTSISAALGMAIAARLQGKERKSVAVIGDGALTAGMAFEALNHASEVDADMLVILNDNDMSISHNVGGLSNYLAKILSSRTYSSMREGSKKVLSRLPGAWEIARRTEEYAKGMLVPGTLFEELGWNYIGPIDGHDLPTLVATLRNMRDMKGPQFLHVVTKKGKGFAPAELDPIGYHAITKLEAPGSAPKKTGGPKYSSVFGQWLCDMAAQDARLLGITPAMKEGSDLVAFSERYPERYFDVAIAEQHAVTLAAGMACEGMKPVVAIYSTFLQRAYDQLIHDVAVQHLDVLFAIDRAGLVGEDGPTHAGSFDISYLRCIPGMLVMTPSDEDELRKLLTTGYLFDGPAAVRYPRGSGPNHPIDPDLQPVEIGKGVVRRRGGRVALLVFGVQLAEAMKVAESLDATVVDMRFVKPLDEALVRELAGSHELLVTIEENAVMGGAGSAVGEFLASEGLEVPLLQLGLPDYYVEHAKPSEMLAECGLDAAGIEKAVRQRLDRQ

Biological target: truncated 1-deoxy-D-xylulose-5-phosphate synthase from Pseudomonas aeruginosa (ΔpaDXPS) (Pseudomonas aeruginosa) (UniProt Q9KGU7)
Experiment: crystal structure

Substance: truncated 1-deoxy-D-xylulose-5-phosphate synthase from Pseudomonas aeruginosa (ΔpaDXPS) (from UniProt Q9KGU7 1-205; Q9KGU7 246-627) (enzyme)
- binding: binds
